Data as given in PubChem BioAssay AID504808 (Drosophila RNAi Screening Center, 2011).
Purpose: 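Chromatin factors that keep E2F targets switched off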 (primary screen). Cells: Drosophila S2 cells. Reagents: long dsRNA against Drosophila genes. Measured: 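Dual luciferase plate measurements; E2F-specific signal taken as firefly over Renilla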. Scale: E2F firefly: higher = more E2F reporter activity; Renilla normaliser: higher = more normaliser reporter signal. Hit rule: 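Called active if the normalised E2F reporter went up by over 50%; the cutoff is arbitrary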.
The deposit covers about 21,000 reagents; below is a random part of those that have a named target and a result. Of all reagents, 18 (0.084%) are marked active. 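Raw counts without plate normalisation, one of two replicates; the ratio scores behind the calls were not deposited.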 Not stated in the record: the amount of reagent, the time to read-out.

gene | DRSC id | E2F firefly, rep 1 | Renilla normaliser, rep 1 | outcome
Fancm | DRSC16348 | 76260 | 3499 | inactive
CysRS-m | DRSC07129 | 2557 | 187 | inactive
CG17672 | DRSC09230 | 79739 | 3429 | inactive
CG17672 | DRSC10278 | 81376 | 3546 | inactive
Nup75 | DRSC06947 | 66127 | 3187 | inactive
amrt | DRSC19378 | 1.97e5 | 6737 | inactive
PVRAP | DRSC09966 | 91387 | 3559 | inactive
PVRAP | DRSC10577 | 82363 | 3270 | inactive
Med | DRSC16737 | 32154 | 2570 | inactive
Pih1D1 | DRSC02897 | 77839 | 3467 | inactive
CG34459 | DRSC06973 | 1.56e5 | 5221 | inactive
Pex2 | DRSC10770 | 77690 | 3761 | inactive
tou | DRSC06006 | 3044 | 251 | inactive
CG5612 | DRSC15844 | 1.11e5 | 7531 | inactive
GstT3 | DRSC20541 | 1.43e5 | 6926 | inactive
pasha | DRSC15295 | 2063 | 940 | inactive
BHD | DRSC11017 | 84391 | 3721 | inactive

Targets listed so far whose gene name starts with P or p (5):
gene | DRSC id | E2F firefly, rep 1 | Renilla normaliser, rep 1 | outcome
PVRAP | DRSC09966 | 91387 | 3559 | inactive
PVRAP | DRSC10577 | 82363 | 3270 | inactive
Pih1D1 | DRSC02897 | 77839 | 3467 | inactive
Pex2 | DRSC10770 | 77690 | 3761 | inactive
pasha | DRSC15295 | 2063 | 940 | inactive

Additional records:
gene | DRSC id | E2F firefly, rep 1 | Renilla normaliser, rep 1 | outcome
Nep1 | DRSC18388 | 7514 | 648 | inactive
Nep1 | DRSC18389 | 63095 | 4162 | inactive
Ork1 | DRSC20266 | 7352 | 756 | inactive
Sptz | DRSC15758 | 1.39e5 | 6760 | inactive
CG1024 | DRSC12496 | 1.38e5 | 6853 | inactive
CG1090 | DRSC12150 | 76337 | 3381 | inactive
CG33278 | DRSC10336 | 94397 | 4489 | inactive
Hug | DRSC16969 | 1.45e5 | 6918 | inactive
bumpel | DRSC16100 | 1.47e5 | 6434 | inactive
Pgant2 | DRSC00587 | 1.42e5 | 4933 | inactive
CG12835 (retired record) | DRSC06181 | 1.65e5 | 5096 | inactive
CG3740 | DRSC18508 | 1.16e5 | 5995 | inactive
CG2186 | DRSC19838 | 7738 | 692 | inactive
red | DRSC14477 | 54641 | 3710 | inactive
h-cup | DRSC15973 | 77310 | 3692 | inactive
dpr18 | DRSC19606 | 1.46e5 | 7060 | inactive
Clamp | DRSC03718 | 87487 | 3992 | inactive
